Assay results taken from PubChem BioAssay AID540276 (National Center for Advancing Translational Sciences (NCATS), 2011).
About 5,400 (1.8%) of roughly 300,000 compounds were called active. The inconclusive results got no clear call from the source; some entries with a clear call stand among them for comparison. The call rests on the fitted dose curve; tested in HEK293 cells. Potencies of inconclusive entries are doubtful fits and often do not repeat.

experiment: qHTS for inhibitors of binding or entry into cells for Marburg Virus; conditions: Marburg virus pseudotyped entry inhibition, cell reporter; activity change, negative = inhibition: at 37.8 µM (top of the series) unless noted
On the % scale 0 is the no-effect control and ±100 the full control effect; potency means the concentration at half of the fitted maximal effect.

SMILES	Potency	activity change, negative = inhibition
COc1ccccc1N1CCN(C(=O)c2cn(CC(C)C)c(=O)c3c2c2ccccc2n3C)CC1	inactive	
CC(NC(=O)c1cc(COc2ccccc2)on1)c1nccs1 (stereo not given)	inconclusive: 2.24 µM [activator, full curve, poor fit]	
O=C(CNC(=O)c1ccccc1Cl)Nc1ccc(F)cc1	inconclusive: 12.6 µM [activator, partial curve, poor fit]	
Cc1ccccc1Nc1nn2c(=O)c3ccccc3nc2s1	inconclusive: 2.91 µM [activator, partial curve, poor fit]	
COc1ccc(C2CC(C)(c3ccc(OC)cc3OC)Nc3ccccc3N2)c(OC)c1 (stereo not given)	inactive	
CCn1c(N)cc(=O)[nH]c1=S	inconclusive: 0.794 µM [activator, partial curve, poor fit]	
COc1ccc(NC(=O)O/N=C/c2ccc(Br)cc2)cc1	inconclusive: 10 µM [activator, partial curve, poor fit]	
Cn1ccnc1SCC(=O)c1cccc(C(F)(F)F)c1	inactive	
COc1ccc(C(=O)NC(=S)NNC(=O)Cc2cccs2)cc1	inactive	
O=C(CN1C(=O)c2ccccc2C1=O)Nc1ccccc1F	inconclusive: 12.6 µM [activator, partial curve, poor fit]	
COC(=O)/C=C/c1sc2nc(C)cc(C)c2c1N=CN(C)C	inconclusive: 4.47 µM [activator, single point]	
CC(=O)NCCn1c(SCC#N)nc2ccccc2c1=O	inconclusive: 18.3 µM [inhibitor, single point]	
CCc1ccc(NC(=O)C(C)OC(=O)c2cccc(S(=O)(=O)N3CCc4ccccc4C3)c2)cc1 (stereo not given)	inconclusive: 35.5 µM [inhibitor, single point]	
CCN1C(=O)/C(=C2/C=Cc3ccccc3N2CC)SC1=S	inactive	
C(=Nc1ccccc1)c1ccc[nH]1	inconclusive: 31.6 µM [activator, single point]	
COc1ccc(C2C(C(N)=O)=C(C)Nc3ncnn32)cc1 (stereo not given)	inconclusive: 29.1 µM [activator, single point]	
CCOC(=O)c1c(C)oc2ncnc(Nc3ccc(OC)cc3OC)c12	inactive	
Cc1noc(C)c1COc1ccc(CC(=O)NC2CCCCCC2)cc1	inconclusive: 3.16 µM [inhibitor, partial curve, poor fit]	
CC(OC(=O)c1ccc2c(=O)n3c(nc2c1)CCCCC3)C(=O)Nc1ccc(Cl)cn1 (stereo not given)	inconclusive: 35.5 µM [activator, single point]	
CC1(C)CC(=O)c2cc(OCC(=O)NCCCN3CCN(c4ccc(F)cc4)CC3)ccc2O1	active: 23.1 µM	
CCSc1nc2ccc(OC)cc2cc1C#N	inconclusive: 0.447 µM [activator, full curve]	
CC(C)c1ccc(OCC(O)CN2CCN(c3ccccc3)CC2)cc1 (stereo not given)	inconclusive: 35.5 µM [inhibitor, single point]	
O=C(CCc1ccc(F)c(F)c1)NC1CCCN(Cc2ccc(Cl)cc2)C1 (stereo not given)	active: 11.2 µM	
COc1ccc(CCC(=O)NCC(c2ccco2)N2CCc3ccccc32)cc1 (stereo not given)	inconclusive: 8.91 µM [inhibitor, partial curve, poor fit]	

SMILES	Potency	activity change, negative = inhibition
CC(C)(C)c1ccc(CN(Cc2ccco2)Cc2nnnn2C2CCCC2)cc1	inconclusive: 12.6 µM [inhibitor, partial curve, poor fit]	
Cc1c(Cl)cccc1NC(=O)C1=COCCO1	inconclusive: 17.8 µM [activator, single point]	
O=C1C=C(NCc2ccc(Cl)c(Cl)c2)CC1	inactive	
O=S(=O)(c1ccc(Cl)cc1)c1nc(-c2ccco2)oc1SCc1ccc(F)cc1	inconclusive: 35.5 µM [inhibitor, single point]	
COc1ccc(CCNS(=O)(=O)c2ccc3c(c2)NC(=O)CCS3)cc1OC	inconclusive: 8.91 µM [inhibitor, partial curve, poor fit]	
Cn1cc(C(=O)NCN2CCCCC2)c2ccccc21	inactive	
COc1ccc(C2=NN(C(=O)c3ccccc3)C(c3ccccc3)C2)c(O)c1 (stereo not given)	inconclusive: 5.62 µM [inhibitor, single point]	
COc1ccc(/C(N)=N/OC(=O)Cc2ccccc2[N+](=O)[O-])cc1	inconclusive: 23.1 µM [activator, single point]	
OC(c1ccc(OCc2ccccc2)cc1)c1nnc(-c2ccccc2)o1 (stereo not given)	inconclusive: 11.2 µM [inhibitor, partial curve, poor fit]	
CC1CN(C(=O)c2ccc(-c3cccc(C(F)(F)F)c3)o2)CC(C)O1 (stereo not given)	inactive	
CC(c1ccccc1)n1cnc2ccccc2c1=O (stereo not given)	inactive	
COc1ccc(-c2oc(NC(=O)c3ccc(C)cc3)c(C#N)c2-c2ccc(OC)cc2)cc1	inconclusive: 35.5 µM [inhibitor, single point]	
CC(=O)N1CCN(C(=O)c2ccc(Cl)c(S(=O)(=O)N3CCCCCC3)c2)CC1	inactive	
CCC(C)n1c(=N)c(C#N)cc2c(=O)n3cccc(C)c3nc21 (stereo not given)	inconclusive: 35.5 µM [activator, single point]	
Cc1n[nH]c(C)c1CCCCOc1ccccc1F	inconclusive: 20 µM [inhibitor, partial curve, poor fit]	
CN(C)CCNc1ccc(CO)c2sc3ccc(O)cc3c(=O)c12	active: 0.891 µM	
Cc1ccc(S(=O)(=O)NC(=O)NC(C)c2ccc(F)cc2)cc1 (stereo not given)	inactive	
COc1ccc2[nH]c(=O)c(CN(Cc3ccco3)C(=O)c3ccccc3)cc2c1	inconclusive: 3.55 µM [inhibitor, single point]	
COc1ccc(C(C)=O)cc1COC(=O)c1cnc(Cl)c(Cl)c1	inactive	
CCCCn1c(-c2ccc(Br)cc2F)nc2c1c(=O)[nH]c(=O)n2CC(C)C	inconclusive: 29.1 µM [inhibitor, single point]	
CC(C)N(CCCNC(=O)Cn1c(=O)c2cccn2c2ccc(F)cc21)Cc1ccccc1	inconclusive: 2.24 µM [inhibitor, full curve]	
Cc1cc(C)nc(NS(=O)(=O)c2ccc(NC(=O)c3ccc(O)cc3O)cc2)n1		inconclusive: 12% [activator]
COc1ccccc1CNC(=O)Cc1csc(NC(=O)Nc2ccccc2OC)n1	inconclusive: 3.55 µM [inhibitor, partial curve, poor fit]	
COc1cc(/C=C(\C#N)C(=O)c2c[nH]c3ccccc23)cc(OC)c1O	inconclusive: 20 µM [inhibitor, single point]	

Quoted from the listing:
In Potency, `COc1ccc(/C(N)=N/OC(=O)Cc2ccccc2[N+](=O)[O-])cc1` is entered as inconclusive: 23.1 µM [activator, single point]
In Potency, `COc1ccc2[nH]c(=O)c(CN(Cc3ccco3)C(=O)c3ccccc3)cc2c1` is entered as inconclusive: 3.55 µM [inhibitor, single point]
In Potency, `CCc1ccc(NC(=O)C(C)OC(=O)c2cccc(S(=O)(=O)N3CCc4ccccc4C3)c2)cc1` (stereo not given) is entered as inconclusive: 35.5 µM [inhibitor, single point]

(continued)

SMILES	Potency	activity change, negative = inhibition
Cc1ccc(N=Cc2sc(O)c3ccccc23)c(C)c1	inconclusive: 0.0046 µM [inhibitor, full curve, poor fit]	
Cc1cc(C)n(CC(C)NC(=O)c2cc(COc3c(F)cccc3F)on2)n1 (stereo not given)	inactive	
c1ccc(OCc2nn3c(-c4ccncc4)nnc3s2)cc1	inactive	
CCCCn1c(SCC(=O)Nc2cc(NC(=O)c3ccco3)ccc2C)nc2ccccc2c1=O	inconclusive: 18.3 µM [inhibitor, single point]	
CO/N=C(/COc1ccc(F)cc1)c1ccc(OC)cc1	inconclusive: 11.2 µM [inhibitor, partial curve, poor fit]	
Cc1ccc(S(=O)(=O)NC2=NCN(C)CN2)cc1[N+](=O)[O-]	inactive	
Cc1c(C)n(CCCN(C)C)c2ncnc(NC3CCCCC3)c12	active: 10 µM	
CCc1ccc2c(CN(C)Cc3ccccc3OC)cc(=O)oc2c1	inconclusive: 7.94 µM [inhibitor, partial curve, poor fit]	
COc1ccc(NC(=O)CSc2nc(-c3ccc(F)cc3)[nH]c2-c2ccc(C)cc2)cc1OC	inconclusive: 25.1 µM [inhibitor, single point]	
CCC(=O)c1ccc(N2CCN(C(=O)c3ccccc3Br)CC2)c(F)c1	inconclusive: 3.55 µM [inhibitor, partial curve, poor fit]	
O=C(Nc1cccc(Cl)c1Cl)C1CC(=O)N(c2ccc(Br)cc2)C1 (stereo not given)	inconclusive: 25.9 µM [inhibitor, single point]	
CCOC(=O)C1CN(S(=O)(=O)c2ccc(C)cc2)C1	inconclusive: 0.231 µM [inhibitor, full curve, poor fit]	
CNCc1ccccc1Sc1cc(O)ccc1O	inconclusive: 0.708 µM [activator, single point]	
Cc1cccc2c(C(=O)N3CCCCC3)cc(-c3ccccc3)nc12	inconclusive: 4.47 µM [inhibitor, full curve, poor fit]	
C=CCNC(=S)NC(=O)c1csc([N+](=O)[O-])c1	inactive	
CN(C(=O)c1ccc(NC(=O)Cc2ccc(NC(=O)C3CCN(C(=O)c4ccccc4)CC3)cc2)cc1)C1CC1	inactive	
CCCCn1c(N)c(N(CC(C)C)C(=O)C2=NN(c3ccccc3)C(=O)CC2)c(=O)[nH]c1=O	inactive	
N#CC1=C2SCN(c3ccccc3)CN2C(=O)CC1c1c(Cl)cccc1Cl (stereo not given)	inactive	
COc1ccc(-n2c(=O)c3ccccc3n(CC(=O)Nc3ccccc3OC)c2=O)cc1	inconclusive: 2.82 µM [inhibitor, single point]	
Cc1noc(C)c1COc1ccc(C(=O)N2CCC(C)CC2)cc1	inconclusive: 35.5 µM [inhibitor, single point]	
CN(C)CCCN(C(=O)c1cc2cc([N+](=O)[O-])ccc2s1)c1nc2cc3c(cc2s1)OCCO3	inconclusive: 3.16 µM [inhibitor, single point]	
COc1cccc(/C(O)=C2/C(=O)C(=O)N(Cc3cccnc3)C2c2ccco2)c1 (stereo not given)	inconclusive: 0.164 µM [activator, single point]	
